Results are given in words; binding and its absence hold for the method and conditions named. Binding seen in cells or lysates may run through a third protein. Some results given as binding are weak or reduced against the parent protein; the word gives no strength.
Key:
[1] = target: HLA B*0702 class I MHC molecule (human); test: LC-MS/MS of eluted class I MHC peptides; Table 7: presented by HLA B*0702 on AML, ALL, CLL
[2] = target: HLA B*0702 class I MHC molecule (human); test: LC-MS/MS of peptides eluted from immunoaffinity-purified class I MHC; Table 4: associated with HLA B*0702
[3] = target: HLA B*0702 class I MHC molecule (human); test: LC-MS/MS of eluted class I MHC peptides of HLA B*07:02 leukemia samples
[4] = target: HLA B*0702 class I MHC molecule (human); test: LC-MS/MS of eluted class I MHC peptides; Table 7: presented by HLA B*0702 on AML, ALL, CLL, GM, JY, S, To

binding [1]	binding [2]	binding [3]	binding [4]	Binder
binds	binds	–	–	IPVSKPLSL (O-GlcNAc on S4) [IPVsKPLSL (SEQ ID NO: 18)]
–	binds	binds	binds	IPVSSHNSL (O-GlcNAc on S4) [IPVsSHNSL (SEQ ID NO: 19)]
